The values that follow come from patent US20090233893A1, “Methods of Dissolving Beta-Sheet Proteins and Uses Thereof” (priority 2006, published 2009).

“And” between values parts separate entries of the source, which are not always exact repeats. Equal values may be shown once.

One series deals with B. mori fibroin. To be noted: for Amide II peak of metal chelator-dissolved protein: B. mori fibroin dissolved in 500 mM chelator/heavy water solution; for Amide I peak of metal chelator-dissolved protein: B. mori fibroin dissolved in 500 mM chelator/heavy water solution (Cu pD 13.7, Li pD 12.8).
In series [1] the test system is tau paired helical filaments. The note with it: paired helical filaments dissolved in 500 mM chelator/heavy water solution.

Consider `NCCN.[Br-].[Li+]` [Li^+en, Li^+ ethylene diamine bromide], for which, in the series on B. mori fibroin, the “Amide II peak of metal chelator-dissolved protein” value (“Amide II peak” below) amounted to 1533 cm⁻¹ and the “Amide I peak of metal chelator-dissolved protein” value was 1652 cm⁻¹. Also, in series [1], the “Amide II peak” value was 1570 cm⁻¹.
`NCCN.[Cu+2].[OH-].[OH-]` [Cu^2+en, Cu^2+ ethylene diamine hydroxide]: in the series on B. mori fibroin, the “Amide II peak” value was 1551 cm⁻¹ and 1588 cm⁻¹; the “Amide I peak of metal chelator-dissolved protein” value is 1652 cm⁻¹. Also, the “Amide II peak” value in series [1] came to 1590 cm⁻¹.
